Reference: publication PMC5650142, “GPR40 partial agonists and AgoPAMs: Differentiating effects on glucose and hormonal secretions in the rodent” (PLoS ONE, 2017)
Values joined by “and” are separate entries in the source; they are usually repeats but may differ in a detail not shown here. Identical values can stand only once. Further values from the same series stand in other lists.

Test system: wild type C57BL/6 and GLP-1R-/- mice
Test: Mouse glucose tolerance test (IPGTT, wild type and GLP-1R-/- mice)
Assay type: in vivo
Settings: Time 40, individual animals
Procedure: Wild type C57BL/6 mice and GLP-1R^-/- mice were fed a high fat diet (D12492i, Research Diets) for 6 weeks prior to GTT. On the day of study, mice were fasted at 1 h post lights on, and body weights were measured. […] Mice were then dosed PO at a volume of 10 ml/kg with vehicle (0.5% methylcellulose), MK-2305 (a GPR40 partial agonist described in Hauge et al) at 10 mg/kg, or AP1 at 30 mg/kg. Dosages of MK-2305 and AP1 were administered at maximal efficacious doses as determined by acute dose titrations with efficacy determined via reduction in glucose during an IPGTT (data not shown). […] Blood glucose was measured again (time = 0) just prior to an intraperitoneal (IP) dextrose challenge of 1 g/kg at 10 ml/kg dose volume (Dextrose, Hospira Inc., Lake Forrest IL). A subset of vehicle treated mice was injected with 0.9% NaCl saline to serve as negative control. Blood glucose was then measured at 10, 20, 40, 60, and 120 min after challenge. To capture insulin secretion during the IPGTT, blood via tail vein was collected at t = - 60, 0, 10, 20, 40, 60 min post challenge.
Net AUC was calculated by subtracting the average AUC of the saline group from each groups’ total AUC.
Blood for insulin, glucagon, GLP-1, GIP, and PYY measurements was collected into K2EDTA Microtainer tubes (BD, Franklin Lakes, NJ) pre-treated with DPP4 inhibitor (Millipore, Billerica, MA) and cOmplete™ Protease Inhibitor Cocktail Tablets (Roche Diagnostics, Indianapolis, IN). Tubes were centrifuged for 10 minutes at 5000 RPM, and plasma was aliquotted for analysis. Plasma insulin levels were measured via EIA (Mesoscale Discovery ELISA Kit, Gaithersburg MD). Rat plasma total GLP-1 was measured using Total GLP-1 (ver.2) Assay Kit (Cat#: K150JVC). The measurement of active GLP-1 was carried out in a similar manner as that described for total GLP-1 assay with the exception that MSD Active GLP-1 (ver. 2) assay kit (Cat# K150JWC) was used. Rat plasma glucagon was measured using an in-house glucagon assay developed as a MSD format sandwich immunoassay (Merck & Co., Inc., MRL, Kenilworth, NJ USA). The antibody specificity was cross validated via mass- spec using procedures described in Lee et al. Briefly, MSD Streptavidin Gold plates were coated with 2 μg/ml biotin mouse monoclonal antibody generated to glucagon. Test samples were added to the plates and a separate Sulfo- tagged monoclonal antibody was used to detect the captured glucagon protein (2 μg/ml). The ELISA was carried out in the standard reagents in the MSD format. The plate was read on the SECTOR Imager 6000 Reader. Metabolic hormones GIP (Gastric Inhibitory Polypeptide) and PYY (Peptide YY) were measured in rat plasma using the Rat Metabolic Magnetic Bead Panel (EMD Millipore, Billerica, MA). The assay was performed according to manufacturer protocol.

| Compound | Blood Glucose (KO mice, 30 mpk, 30 mg/kg) | Blood Glucose (WT mice, 30 mpk, 30 mg/kg) | Blood Glucose (KO mice, 10 mpk, 10 mg/kg) | Blood Glucose (WT mice, 10 mpk, 10 mg/kg) |
| --- | --- | --- | --- | --- |
| COc1ccc(F)c(-c2ccc([C@@H]3CCc4ccc([C@H](C5CC5)[C@H](C)C(=O)O)cc4O3)cc2)c1 [AP1] | 119 mg/dl and 82 mg/dl (2×) and 64 mg/dl and 107 mg/dl | 86 mg/dl (2×) and 72 mg/dl and 98 mg/dl and 110 mg/dl and 94 mg/dl and 100 mg/dl |  |  |
| O=C1NC(=O)C(C2CCOc3cc(Oc4ccc(C(F)(F)F)cc4Cl)ccc32)S1 (stereo not shown) [MK-2305, reference compound] |  |  | 411 mg/dL and 383 mg/dL and 350 mg/dL and 486 mg/dL | 314 mg/dL and 325 mg/dL and 330 mg/dL and 219 mg/dL and 349 mg/dL and 316 mg/dL and 486 mg/dL |
